Data taken from the supplement of paper PMC10849652.
The list shows a part of the results. Residues, ends and D or L forms follow the SMILES beside them. *: point of attachment. Cbz = O=C(OCc1ccccc1)*

Amino acid sequences for entries named in this document (tags omitted). A change or cut given only in a name is not applied to a line headed by its entry.
UniProt Q99470: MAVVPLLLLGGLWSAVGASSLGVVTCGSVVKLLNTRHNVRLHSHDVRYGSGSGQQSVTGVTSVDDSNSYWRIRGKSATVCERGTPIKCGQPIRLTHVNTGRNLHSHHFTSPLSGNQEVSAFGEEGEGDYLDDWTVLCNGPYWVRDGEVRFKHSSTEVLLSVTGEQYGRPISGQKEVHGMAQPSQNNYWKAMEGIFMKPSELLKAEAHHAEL
UniProt Q7L3V2: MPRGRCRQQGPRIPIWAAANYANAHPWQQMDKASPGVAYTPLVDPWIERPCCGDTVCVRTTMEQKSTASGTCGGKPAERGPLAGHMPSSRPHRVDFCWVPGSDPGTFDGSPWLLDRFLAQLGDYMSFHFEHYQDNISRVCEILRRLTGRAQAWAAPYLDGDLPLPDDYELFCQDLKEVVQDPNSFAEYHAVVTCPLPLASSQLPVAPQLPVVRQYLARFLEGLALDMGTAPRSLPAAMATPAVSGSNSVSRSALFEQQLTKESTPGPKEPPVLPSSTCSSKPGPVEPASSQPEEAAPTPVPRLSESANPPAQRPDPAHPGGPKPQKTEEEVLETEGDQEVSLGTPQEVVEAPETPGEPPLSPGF
UniProt Q13296: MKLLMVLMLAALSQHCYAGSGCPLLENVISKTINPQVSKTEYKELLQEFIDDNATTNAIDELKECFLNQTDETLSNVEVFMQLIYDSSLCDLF
UniProt Q6UWP8: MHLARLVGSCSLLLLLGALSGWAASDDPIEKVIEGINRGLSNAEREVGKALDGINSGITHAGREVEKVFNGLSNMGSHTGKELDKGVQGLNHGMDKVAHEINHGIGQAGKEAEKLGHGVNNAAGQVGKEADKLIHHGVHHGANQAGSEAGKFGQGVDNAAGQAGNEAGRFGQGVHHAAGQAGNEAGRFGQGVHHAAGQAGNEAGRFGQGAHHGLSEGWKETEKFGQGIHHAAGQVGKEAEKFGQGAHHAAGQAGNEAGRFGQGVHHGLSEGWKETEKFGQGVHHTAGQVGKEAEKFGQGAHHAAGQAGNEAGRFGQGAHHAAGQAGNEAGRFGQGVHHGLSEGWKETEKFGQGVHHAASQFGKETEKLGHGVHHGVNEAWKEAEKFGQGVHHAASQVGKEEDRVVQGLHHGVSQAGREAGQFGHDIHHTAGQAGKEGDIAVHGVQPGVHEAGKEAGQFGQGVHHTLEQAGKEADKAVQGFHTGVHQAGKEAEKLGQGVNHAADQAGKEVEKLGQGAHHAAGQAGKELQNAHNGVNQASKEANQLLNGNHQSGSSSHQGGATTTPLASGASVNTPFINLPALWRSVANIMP
UniProt Q9UPU9: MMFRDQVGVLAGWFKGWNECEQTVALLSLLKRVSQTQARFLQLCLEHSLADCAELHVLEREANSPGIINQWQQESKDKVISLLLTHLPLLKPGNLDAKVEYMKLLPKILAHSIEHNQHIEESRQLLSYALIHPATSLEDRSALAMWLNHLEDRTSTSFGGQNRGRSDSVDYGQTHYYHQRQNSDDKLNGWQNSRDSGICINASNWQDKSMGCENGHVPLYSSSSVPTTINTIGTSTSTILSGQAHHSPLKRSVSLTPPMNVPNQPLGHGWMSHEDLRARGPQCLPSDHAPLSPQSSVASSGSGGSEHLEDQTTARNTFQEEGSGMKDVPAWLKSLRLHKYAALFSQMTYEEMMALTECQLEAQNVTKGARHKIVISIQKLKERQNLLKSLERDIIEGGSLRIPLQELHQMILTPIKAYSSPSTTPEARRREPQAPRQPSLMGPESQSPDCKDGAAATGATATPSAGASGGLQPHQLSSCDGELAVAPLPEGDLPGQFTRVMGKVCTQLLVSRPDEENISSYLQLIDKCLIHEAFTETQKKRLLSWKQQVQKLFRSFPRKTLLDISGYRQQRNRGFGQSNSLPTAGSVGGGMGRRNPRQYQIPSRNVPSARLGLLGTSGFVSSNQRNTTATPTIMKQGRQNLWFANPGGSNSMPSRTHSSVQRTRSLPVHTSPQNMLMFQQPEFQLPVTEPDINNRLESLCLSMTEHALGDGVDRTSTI
UniProt O14828: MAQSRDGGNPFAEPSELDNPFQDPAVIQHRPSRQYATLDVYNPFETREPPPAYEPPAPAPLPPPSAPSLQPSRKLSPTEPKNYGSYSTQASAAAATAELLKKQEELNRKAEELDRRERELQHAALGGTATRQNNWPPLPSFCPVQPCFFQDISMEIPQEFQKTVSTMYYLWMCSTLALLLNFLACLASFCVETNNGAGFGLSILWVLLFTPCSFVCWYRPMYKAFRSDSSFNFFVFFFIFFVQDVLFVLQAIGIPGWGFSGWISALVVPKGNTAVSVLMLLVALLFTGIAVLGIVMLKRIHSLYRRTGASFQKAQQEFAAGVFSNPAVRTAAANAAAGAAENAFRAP
UniProt O75556: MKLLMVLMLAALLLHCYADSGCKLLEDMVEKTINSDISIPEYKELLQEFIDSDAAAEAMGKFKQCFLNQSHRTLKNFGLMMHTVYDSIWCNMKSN
UniProt O95487: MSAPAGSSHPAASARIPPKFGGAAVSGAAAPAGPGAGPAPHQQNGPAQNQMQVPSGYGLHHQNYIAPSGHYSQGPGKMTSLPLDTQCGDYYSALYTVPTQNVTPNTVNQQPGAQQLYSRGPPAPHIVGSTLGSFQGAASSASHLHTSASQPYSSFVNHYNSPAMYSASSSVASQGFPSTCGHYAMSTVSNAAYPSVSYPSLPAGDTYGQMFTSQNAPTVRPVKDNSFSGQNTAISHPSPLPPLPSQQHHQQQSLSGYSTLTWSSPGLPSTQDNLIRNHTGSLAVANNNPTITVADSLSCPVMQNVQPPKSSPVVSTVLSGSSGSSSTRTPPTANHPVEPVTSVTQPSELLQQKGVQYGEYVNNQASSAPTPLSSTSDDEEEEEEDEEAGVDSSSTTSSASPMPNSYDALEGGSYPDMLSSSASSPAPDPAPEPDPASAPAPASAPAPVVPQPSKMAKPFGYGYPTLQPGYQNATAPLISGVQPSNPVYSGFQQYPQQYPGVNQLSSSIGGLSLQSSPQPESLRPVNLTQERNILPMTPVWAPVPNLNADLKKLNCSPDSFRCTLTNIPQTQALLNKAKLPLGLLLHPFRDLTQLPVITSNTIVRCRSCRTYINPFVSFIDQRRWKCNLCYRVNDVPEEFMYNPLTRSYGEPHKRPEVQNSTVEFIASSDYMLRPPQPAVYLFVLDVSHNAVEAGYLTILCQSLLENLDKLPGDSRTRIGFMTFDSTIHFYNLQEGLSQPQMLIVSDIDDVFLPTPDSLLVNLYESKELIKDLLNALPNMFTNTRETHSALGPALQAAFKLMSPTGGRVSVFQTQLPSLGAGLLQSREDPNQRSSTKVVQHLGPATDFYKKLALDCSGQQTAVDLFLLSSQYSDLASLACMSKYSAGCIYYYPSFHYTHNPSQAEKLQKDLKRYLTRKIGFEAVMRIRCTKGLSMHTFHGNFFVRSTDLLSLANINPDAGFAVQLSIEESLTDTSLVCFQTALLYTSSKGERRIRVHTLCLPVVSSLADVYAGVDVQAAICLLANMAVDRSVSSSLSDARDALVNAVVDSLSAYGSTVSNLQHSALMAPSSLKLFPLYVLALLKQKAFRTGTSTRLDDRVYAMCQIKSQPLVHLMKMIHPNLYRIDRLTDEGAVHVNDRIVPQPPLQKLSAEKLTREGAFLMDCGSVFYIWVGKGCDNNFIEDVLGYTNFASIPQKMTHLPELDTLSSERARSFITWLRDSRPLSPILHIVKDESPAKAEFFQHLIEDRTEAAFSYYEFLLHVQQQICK
UniProt Q96BY9: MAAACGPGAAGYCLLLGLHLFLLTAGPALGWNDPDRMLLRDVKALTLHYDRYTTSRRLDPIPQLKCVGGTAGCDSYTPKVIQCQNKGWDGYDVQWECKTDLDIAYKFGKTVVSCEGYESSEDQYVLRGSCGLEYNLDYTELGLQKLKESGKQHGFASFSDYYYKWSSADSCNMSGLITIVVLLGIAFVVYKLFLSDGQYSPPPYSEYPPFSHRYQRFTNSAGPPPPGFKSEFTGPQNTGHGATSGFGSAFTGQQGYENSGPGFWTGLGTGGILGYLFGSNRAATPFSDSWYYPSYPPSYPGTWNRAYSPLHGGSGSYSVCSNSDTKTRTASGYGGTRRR
UniProt Q14684: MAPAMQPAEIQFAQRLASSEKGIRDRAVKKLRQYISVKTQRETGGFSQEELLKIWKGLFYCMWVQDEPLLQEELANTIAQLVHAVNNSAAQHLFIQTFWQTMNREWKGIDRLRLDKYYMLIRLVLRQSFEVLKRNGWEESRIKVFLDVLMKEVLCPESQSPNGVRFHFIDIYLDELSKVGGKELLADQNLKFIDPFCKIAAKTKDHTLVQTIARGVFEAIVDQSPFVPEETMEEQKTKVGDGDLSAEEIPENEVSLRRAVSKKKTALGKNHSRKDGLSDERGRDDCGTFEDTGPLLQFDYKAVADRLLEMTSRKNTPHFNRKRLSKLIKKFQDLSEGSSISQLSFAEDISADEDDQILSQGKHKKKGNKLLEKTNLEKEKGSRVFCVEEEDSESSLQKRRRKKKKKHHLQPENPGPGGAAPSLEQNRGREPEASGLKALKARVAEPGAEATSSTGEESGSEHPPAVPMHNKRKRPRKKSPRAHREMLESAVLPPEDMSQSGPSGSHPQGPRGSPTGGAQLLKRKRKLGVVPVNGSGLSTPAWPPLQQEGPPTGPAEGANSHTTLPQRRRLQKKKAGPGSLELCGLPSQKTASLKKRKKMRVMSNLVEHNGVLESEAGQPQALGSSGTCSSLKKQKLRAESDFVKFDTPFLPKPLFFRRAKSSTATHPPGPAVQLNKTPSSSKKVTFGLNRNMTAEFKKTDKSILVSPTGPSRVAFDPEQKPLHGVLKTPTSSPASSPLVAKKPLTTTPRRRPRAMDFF
UniProt P23297: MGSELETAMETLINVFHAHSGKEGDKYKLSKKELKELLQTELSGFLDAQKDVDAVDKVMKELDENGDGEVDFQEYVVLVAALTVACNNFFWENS
UniProt P48443: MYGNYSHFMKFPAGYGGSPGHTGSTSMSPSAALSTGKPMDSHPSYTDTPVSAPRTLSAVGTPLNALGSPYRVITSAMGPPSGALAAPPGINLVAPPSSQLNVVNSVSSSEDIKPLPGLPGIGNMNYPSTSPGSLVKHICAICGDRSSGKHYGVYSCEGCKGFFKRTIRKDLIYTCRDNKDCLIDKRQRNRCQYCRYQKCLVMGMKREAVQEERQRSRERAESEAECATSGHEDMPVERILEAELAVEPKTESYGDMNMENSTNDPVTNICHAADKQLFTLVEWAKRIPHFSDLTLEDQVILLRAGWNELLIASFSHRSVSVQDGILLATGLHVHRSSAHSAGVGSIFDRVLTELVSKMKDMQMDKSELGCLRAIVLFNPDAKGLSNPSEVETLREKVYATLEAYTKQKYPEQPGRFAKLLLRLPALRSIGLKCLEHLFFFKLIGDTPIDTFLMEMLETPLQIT
UniProt A6ZKI3: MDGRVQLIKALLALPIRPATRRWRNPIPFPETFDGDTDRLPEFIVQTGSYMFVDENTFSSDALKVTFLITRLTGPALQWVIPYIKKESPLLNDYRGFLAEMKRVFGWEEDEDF
UniProt O75056, whole entry, looked up: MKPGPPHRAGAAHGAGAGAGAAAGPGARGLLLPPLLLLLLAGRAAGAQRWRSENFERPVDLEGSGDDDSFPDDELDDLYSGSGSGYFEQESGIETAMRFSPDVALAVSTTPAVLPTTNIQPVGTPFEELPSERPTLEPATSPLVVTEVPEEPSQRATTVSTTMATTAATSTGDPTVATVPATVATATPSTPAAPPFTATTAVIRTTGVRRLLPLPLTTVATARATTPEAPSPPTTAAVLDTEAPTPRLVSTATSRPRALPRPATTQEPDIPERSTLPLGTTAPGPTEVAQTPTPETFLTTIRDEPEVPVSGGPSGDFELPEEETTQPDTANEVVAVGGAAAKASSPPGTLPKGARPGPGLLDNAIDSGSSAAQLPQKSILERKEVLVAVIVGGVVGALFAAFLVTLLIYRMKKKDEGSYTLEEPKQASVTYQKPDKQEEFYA
UniProt Q9UIL1: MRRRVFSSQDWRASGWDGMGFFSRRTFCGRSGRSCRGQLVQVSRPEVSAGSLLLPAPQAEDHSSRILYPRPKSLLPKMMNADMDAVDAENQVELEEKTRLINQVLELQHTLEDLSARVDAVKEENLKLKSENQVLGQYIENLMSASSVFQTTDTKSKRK
UniProt P28702: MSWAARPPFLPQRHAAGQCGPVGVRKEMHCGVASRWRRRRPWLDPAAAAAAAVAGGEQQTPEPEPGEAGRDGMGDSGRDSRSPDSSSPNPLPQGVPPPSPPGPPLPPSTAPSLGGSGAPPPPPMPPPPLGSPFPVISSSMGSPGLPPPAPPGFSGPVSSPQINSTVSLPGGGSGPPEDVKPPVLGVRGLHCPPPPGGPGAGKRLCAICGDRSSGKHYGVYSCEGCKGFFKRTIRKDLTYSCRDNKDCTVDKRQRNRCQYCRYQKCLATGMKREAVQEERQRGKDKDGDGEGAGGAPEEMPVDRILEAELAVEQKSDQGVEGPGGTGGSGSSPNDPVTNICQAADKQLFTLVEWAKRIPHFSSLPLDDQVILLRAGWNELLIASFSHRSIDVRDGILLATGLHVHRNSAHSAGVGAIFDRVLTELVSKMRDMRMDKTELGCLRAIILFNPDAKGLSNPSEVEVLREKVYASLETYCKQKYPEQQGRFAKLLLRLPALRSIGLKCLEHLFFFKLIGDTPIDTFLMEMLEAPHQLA

Legend:
Assay in all cases: log2 fold change, soluble protein after heating vs DMSO (PISA); higher = thermal stabilisation; K562 cells, 10 uM, 30 min; active = over 0.2 and 3.5 SD of the protein, either way, in both replicates (recomputed)
[1] = compound: C/C(=N\NC(=O)C1=CC(=CC=C1)S(=O)(=O)N2CCOCC2)/C3=C(C=CC(=C3)Cl)O
Method in brief: (§1)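 Soluble protein was quantified by TMTpro 16plex LC-MS/MS after channel sums were equalised. It was obtained as the supernatant after 21,000xg for 90 min from pooled aliquots of K562 cells (2×10^6 cells/mL, 10 μM compound, 30 min) heated for 3 min across 48°C-58°C and extracted in PBS with 0.5% NP-40 at 4°C. Thermal stability values are relative to control samples and come from duplicates. They are given as log2 fold changes.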

[2] = compound: C1=CC2=C(C=CC(=C2)/C=C\3/C(=O)NC(=NCC4=CC=CS4)S3)N=C1
Method in brief: as §1

[3] = compound: C1=CC=C(C=C1)C2=NC(=C(N2)C3=CC=NC=C3)C4=CC(=C(C=C4)Cl)O
Method in brief: as §1

[4] = compound: C1=CC=C2C(=C1)C3=NNC4=CC=CC(=C43)C2=O
Method in brief: as §1

IRAK-1-4 Inhibitor I = compound: C1COCCN1CCN2C3=CC=CC=C3N=C2NC(=O)C4=CC(=CC=C4)[N+](=O)[O-] [IRAK-1-4 Inhibitor I]
Method in brief: as §1

[5] = compound: CC(=O)c1cnc2ccc(-c3cc(Cl)c(O)c(Cl)c3)nc2c1N[C@H]1CC[C@H](CN(C)C)CC1
Method in brief: as §1

ralimetinib = compound: CC(C)(C)Cn1c(N)nc2ccc(-c3[nH]c(C(C)(C)C)nc3-c3ccc(F)cc3)nc21 [ralimetinib]
Method in brief: as §1

[6] = compound: CC(C)C[C@@H](C=O)NC(=O)[C@H](CC(C)C)NC(=O)[C@H](CC(C)C)NC(=O)OCc1ccccc1
Method in brief: as §1

pinometostat = compound: CC(C)N(C[C@H]1O[C@@H](n2cnc3c(N)ncnc32)[C@H](O)[C@@H]1O)[C@H]1C[C@@H](CCc2nc3cc(C(C)(C)C)ccc3[nH]2)C1 [pinometostat]
Method in brief: as §1

erlotinib = compound: C#Cc1cccc(Nc2ncnc3cc(OCCOC)c(OCCOC)cc23)c1 [erlotinib]
Method in brief: as §1

[7] = compound: C1=CC(=C(C=C1Cl)C2=NC3=NC=CN=C3C(=N2)NC4=CC=NC=C4)F
Method in brief: as §1

[8] = compound: C1=CC(=CC=C1C2=NC3=C(N2)C=C(C=C3)C(=O)N)OC4=CC=C(C=C4)Cl
Method in brief: as §1

[9] = compound: C1=CC2=NC=CN=C2C=C1/C=C/3\C(=O)NC(=O)S3
Method in brief: as §1

[10] = compound: C1CCN(C1)C(=O)NC2=CC=CC(=C2)NC3=NC=C(C(=N3)NCCC4=CN=CN4)Br
Method in brief: as §1

[11] = compound: C1CN(CCC1(CC2=CC=C(C=C2)Cl)N)C3=NC=NC4=C3C=CN4
Method in brief: as §1

ibrutinib = compound: C=CC(=O)N1CCC[C@@H](n2nc(-c3ccc(Oc4ccccc4)cc3)c3c(N)ncnc32)C1 [ibrutinib]
Method in brief: as §1

[12] = compound: CC(C)(O)CC(=O)NCCn1ccc2ncnc(Nc3ccc(Oc4cccc(C(F)(F)F)c4)c(Cl)c3)c21
Method in brief: as §1

[13] = compound: CC(C)C1=C2N=C(C=C(N2N=C1)NCC3=CC=CC=C3)NCCCCCCN
Method in brief: as §1

[14] = compound: CC1=C(C2=C(C=C1)C(=O)C3=CC=CC=C3N2CCCN)C
Method in brief: as §1

[15] = compound: CC1=C(C(CC(=O)N1)C2=CC=C(C=C2)C(F)(F)F)C(=O)NC3=C(C=C4C(=C3)C=NN4)F
Method in brief: as §1

Measured: log2 fold change

SAP130 isoform 3 (UniProt Q9H0E3)
inactive: [1] 0.042 | [2] 0.109 | [3] 0.186 | [4] -0.414 | IRAK-1-4 Inhibitor I 0.009 | [5] 0.064 | ralimetinib 0.025 | [6] 0.122 | pinometostat 0.091

SCN4A (UniProt P35499)
inactive: [1] -0.196 | [2] 0.28 | [4] -0.076 | [5] -0.129

SDF2 (UniProt Q99470)
inactive: erlotinib 0.046 | [7] -0.233 | [8] -0.096 | [9] -0.046 | [10] 0.043 | [11] 0.173 | IRAK-1-4 Inhibitor I -0.02 | ibrutinib 0.043 | [12] 0.057 | [13] -0.001 | pinometostat -0.229 | [14] 0.03

RTL10 (UniProt Q7L3V2)
inactive: [1] 0.05 | [7] -0.128 | [2] 0.144 | [3] 0.028 | [4] 0.071 | [10] 0.022 | [11] -0.193 | [5] -0.2 | ralimetinib -0.053 | [12] -0.302 | [6] 0.227 | [14] 0.055

SCGB2A2 (UniProt Q13296)
inactive: [1] 0.031 | [7] -0.144 | [2] -0.016 | [9] -0.199 | [4] -0.699 | [10] -0.393 | [11] -0.542 | IRAK-1-4 Inhibitor I 0.408 | ibrutinib 0.035 | [5] 0.173 | [12] -0.088 | pinometostat -0.215 | [15] -0.546 | [14] 1

SAFB2 (UniProt K7EQU4)
inactive: [7] -0.172 | [9] -0.277 | IRAK-1-4 Inhibitor I -0.129 | ibrutinib 0.131 | [12] -0.042 | pinometostat -0.051

SBSN (UniProt Q6UWP8)
inactive: [1] 0.009 | [2] 0.511 | [4] -0.873 | [5] -0.579 | [15] -0.377

SAMD4A (UniProt Q9UPU9)
inactive: erlotinib 0.759 | [7] -0.079 | [8] -0.019 | [10] 0.535 | [11] -0.438 | IRAK-1-4 Inhibitor I -0.022 | [12] 0.067 | [13] 0.16 | pinometostat 0.002 | [14] 0.411

SCAMP3 isoform 2 (UniProt O14828)
inactive: [7] 0.126 | [9] 0.002 | [3] -0.128 | IRAK-1-4 Inhibitor I -0.597 | ibrutinib 0.213 | ralimetinib 0.039 | [12] -0.11 | [6] 0.064 | pinometostat -0.354 | [15] -0.049

SCGB2A1 (UniProt O75556)
inactive: [9] -0.331 | ibrutinib 0.048 | [15] -0.251

SEC24B isoform 3 (UniProt O95487)
inactive: [1] 0.132 | [7] -0.223 | [2] -0.044 | [9] 0.076 | [3] 0.047 | [4] 0.033 | [10] -0.166 | [11] 0.075 | IRAK-1-4 Inhibitor I -0.035 | ibrutinib -0.052 | [5] 0.03 | ralimetinib 0.136 | [12] -0.049 | [6] 0.021 | pinometostat 0.199 | [14] -0.061

SAE1 (UniProt M0R286)
inactive: erlotinib 0.053 | [7] -0.146 | [8] -0.014 | [9] -0.007 | [3] -0.314 | IRAK-1-4 Inhibitor I -0.029 | ibrutinib -0.105 | ralimetinib -0.207 | [12] 0.115 | [13] 0.22 | [6] 0.374 | pinometostat 0.015

SCLT1 (UniProt Q96NL6)
inactive: [9] -0.002 | [10] -0.088 | [11] 0.051 | IRAK-1-4 Inhibitor I -0.046 | ibrutinib -0.049 | pinometostat 0.005 | [14] 0.129

SARAF (UniProt Q96BY9)
inactive: [1] -0.059 | [7] -0.022 | [2] -0.158 | [9] 0.225 | [4] 0.054 | [10] 0.029 | [11] 0.022 | ibrutinib -0.071 | [5] 0.08 | [12] 0 | [14] -0.275

RRP1B (UniProt Q14684)
inactive: erlotinib 0.357 | [7] -0.151 | [8] -0.17 | [10] 0.125 | [11] -0.089 | IRAK-1-4 Inhibitor I 0.023 | [12] 0.004 | [13] -0.163 | pinometostat 0.089 | [14] -0.289

S100A1 (UniProt P23297)
inactive: erlotinib -0.328 | [7] 0.038 | [8] 0.135 | [9] 0.067 | [3] 0.155 | IRAK-1-4 Inhibitor I 0.026 | ibrutinib 0.003 | ralimetinib -0.054 | [12] -0.137 | [13] -0.465 | [6] 0.108 | pinometostat -0.083 | [15] -0.002

RXRG (UniProt P48443)
inactive: [3] 0.113 | [10] 0.21 | [11] 0.205 | ralimetinib -0.033 | [6] 0.128 | [14] 0.534

RTL8C (UniProt A6ZKI3)
inactive: [7] -0.023 | [3] 0.162 | IRAK-1-4 Inhibitor I 0.031 | ralimetinib 0.137 | [12] -0.19 | [6] 0.198 | pinometostat 0.064

Two neighbouring entries already listed, for reference:
SARAF (UniProt Q96BY9)
inactive: [1] -0.059 | [7] -0.022 | [2] -0.158 | [9] 0.225 | [4] 0.054 | [10] 0.029 | [11] 0.022 | ibrutinib -0.071 | [5] 0.08 | [12] 0 | [14] -0.275

RRP1B (UniProt Q14684)
inactive: erlotinib 0.357 | [7] -0.151 | [8] -0.17 | [10] 0.125 | [11] -0.089 | IRAK-1-4 Inhibitor I 0.023 | [12] 0.004 | [13] -0.163 | pinometostat 0.089 | [14] -0.289

More entries follow.

SDC3 (UniProt O75056)
inactive: [1] -0.135 | [7] -0.015 | [2] 0.05 | [4] -0.157 | [10] -0.139 | [11] 0.203 | [5] 0.089 | [12] -0.006 | [14] -0.036

SDAD1 (UniProt Q9NVU7)
inactive: [1] 0.045 | [7] -0.091 | [2] 0.092 | [9] 0.132 | [3] 0.065 | [4] -0.139 | IRAK-1-4 Inhibitor I -0.089 | ibrutinib -0.08 | [5] -0.025 | ralimetinib -0.011 | [12] -0.021 | [6] 0.047 | pinometostat 0.24 | [15] -0.417

SCOC (UniProt Q9UIL1)
inactive: [3] 0.067 | ralimetinib 0.037 | [6] 0.056

RXRB isoform 3 (UniProt P28702)
inactive: [7] 0.033 | [9] 0.117 | ibrutinib 0.216 | [12] -0.185
